Measurements published in US11174177B2, “Systems and methods for controlling aquatic pests with sulfurous acid” (priority 2017, dated 2021).

Experiment: pH and carbonates in open water after adding sulfurous acid (FIG. 6)
Format: physicochemical

## sulfurous acid
As more sulfurous acid is added
  amount of carbonates in the treated water: reduced
As sulfurous acid is added, four experiments
  pH of treated open water: about 5.5
